Hit rate of the full screen: of about 290,000 compounds, about 110 (0.038%) were called active. Inconclusive means that the source gave no clear call. Such entries were picked first, then a sample of the others. Calls come from the whole dose curve; as a rule, active = well fitted inhibition curve with a large enough effect in the polarisation, with a control signal flat (not every such curve was filed as active); inconclusive = small, poorly fitted or top-dose-only effect, or effect the other way, or a change in a side signal; inactive = no such curve, though single readings can be large or run the other way; the % refers to the polarisation. A potency beside an inconclusive call is a rough fit, not a confirmed value. A note “side channel” means that the fit belongs to a control or component signal, not to the main read-out.
The compounds below were run against Histone-lysine N-methyltransferase 2A (Homo sapiens) (UniProt Q03164) (assay: qHTS Fluorescence Polarization Assay for Inhibitors of MLL CXXC domain - DNA interaction). Conditions: MLL-CXXC / FITC-HOXA9 DNA fluorescence polarization; activity change, negative = inhibition: at 115 µM (top of the series).
Method in brief: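 Fluorescence polarization: 7 uM MLL-CXXC (stock) preincubated 5 min with compounds, then 50 nM fluorescein-HOX-A9 DNA (stock) added; 30 min ambient. Buffer 50 mM Tris-HCl pH 7.5, 50 mM NaCl, 1 mM DTT, 0.05% BSA.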
Potency is the fitted concentration of half-maximal effect.

Chains of the proteins cited; added tags and fusions are not shown.
UniProt Q03164, whole entry, looked up: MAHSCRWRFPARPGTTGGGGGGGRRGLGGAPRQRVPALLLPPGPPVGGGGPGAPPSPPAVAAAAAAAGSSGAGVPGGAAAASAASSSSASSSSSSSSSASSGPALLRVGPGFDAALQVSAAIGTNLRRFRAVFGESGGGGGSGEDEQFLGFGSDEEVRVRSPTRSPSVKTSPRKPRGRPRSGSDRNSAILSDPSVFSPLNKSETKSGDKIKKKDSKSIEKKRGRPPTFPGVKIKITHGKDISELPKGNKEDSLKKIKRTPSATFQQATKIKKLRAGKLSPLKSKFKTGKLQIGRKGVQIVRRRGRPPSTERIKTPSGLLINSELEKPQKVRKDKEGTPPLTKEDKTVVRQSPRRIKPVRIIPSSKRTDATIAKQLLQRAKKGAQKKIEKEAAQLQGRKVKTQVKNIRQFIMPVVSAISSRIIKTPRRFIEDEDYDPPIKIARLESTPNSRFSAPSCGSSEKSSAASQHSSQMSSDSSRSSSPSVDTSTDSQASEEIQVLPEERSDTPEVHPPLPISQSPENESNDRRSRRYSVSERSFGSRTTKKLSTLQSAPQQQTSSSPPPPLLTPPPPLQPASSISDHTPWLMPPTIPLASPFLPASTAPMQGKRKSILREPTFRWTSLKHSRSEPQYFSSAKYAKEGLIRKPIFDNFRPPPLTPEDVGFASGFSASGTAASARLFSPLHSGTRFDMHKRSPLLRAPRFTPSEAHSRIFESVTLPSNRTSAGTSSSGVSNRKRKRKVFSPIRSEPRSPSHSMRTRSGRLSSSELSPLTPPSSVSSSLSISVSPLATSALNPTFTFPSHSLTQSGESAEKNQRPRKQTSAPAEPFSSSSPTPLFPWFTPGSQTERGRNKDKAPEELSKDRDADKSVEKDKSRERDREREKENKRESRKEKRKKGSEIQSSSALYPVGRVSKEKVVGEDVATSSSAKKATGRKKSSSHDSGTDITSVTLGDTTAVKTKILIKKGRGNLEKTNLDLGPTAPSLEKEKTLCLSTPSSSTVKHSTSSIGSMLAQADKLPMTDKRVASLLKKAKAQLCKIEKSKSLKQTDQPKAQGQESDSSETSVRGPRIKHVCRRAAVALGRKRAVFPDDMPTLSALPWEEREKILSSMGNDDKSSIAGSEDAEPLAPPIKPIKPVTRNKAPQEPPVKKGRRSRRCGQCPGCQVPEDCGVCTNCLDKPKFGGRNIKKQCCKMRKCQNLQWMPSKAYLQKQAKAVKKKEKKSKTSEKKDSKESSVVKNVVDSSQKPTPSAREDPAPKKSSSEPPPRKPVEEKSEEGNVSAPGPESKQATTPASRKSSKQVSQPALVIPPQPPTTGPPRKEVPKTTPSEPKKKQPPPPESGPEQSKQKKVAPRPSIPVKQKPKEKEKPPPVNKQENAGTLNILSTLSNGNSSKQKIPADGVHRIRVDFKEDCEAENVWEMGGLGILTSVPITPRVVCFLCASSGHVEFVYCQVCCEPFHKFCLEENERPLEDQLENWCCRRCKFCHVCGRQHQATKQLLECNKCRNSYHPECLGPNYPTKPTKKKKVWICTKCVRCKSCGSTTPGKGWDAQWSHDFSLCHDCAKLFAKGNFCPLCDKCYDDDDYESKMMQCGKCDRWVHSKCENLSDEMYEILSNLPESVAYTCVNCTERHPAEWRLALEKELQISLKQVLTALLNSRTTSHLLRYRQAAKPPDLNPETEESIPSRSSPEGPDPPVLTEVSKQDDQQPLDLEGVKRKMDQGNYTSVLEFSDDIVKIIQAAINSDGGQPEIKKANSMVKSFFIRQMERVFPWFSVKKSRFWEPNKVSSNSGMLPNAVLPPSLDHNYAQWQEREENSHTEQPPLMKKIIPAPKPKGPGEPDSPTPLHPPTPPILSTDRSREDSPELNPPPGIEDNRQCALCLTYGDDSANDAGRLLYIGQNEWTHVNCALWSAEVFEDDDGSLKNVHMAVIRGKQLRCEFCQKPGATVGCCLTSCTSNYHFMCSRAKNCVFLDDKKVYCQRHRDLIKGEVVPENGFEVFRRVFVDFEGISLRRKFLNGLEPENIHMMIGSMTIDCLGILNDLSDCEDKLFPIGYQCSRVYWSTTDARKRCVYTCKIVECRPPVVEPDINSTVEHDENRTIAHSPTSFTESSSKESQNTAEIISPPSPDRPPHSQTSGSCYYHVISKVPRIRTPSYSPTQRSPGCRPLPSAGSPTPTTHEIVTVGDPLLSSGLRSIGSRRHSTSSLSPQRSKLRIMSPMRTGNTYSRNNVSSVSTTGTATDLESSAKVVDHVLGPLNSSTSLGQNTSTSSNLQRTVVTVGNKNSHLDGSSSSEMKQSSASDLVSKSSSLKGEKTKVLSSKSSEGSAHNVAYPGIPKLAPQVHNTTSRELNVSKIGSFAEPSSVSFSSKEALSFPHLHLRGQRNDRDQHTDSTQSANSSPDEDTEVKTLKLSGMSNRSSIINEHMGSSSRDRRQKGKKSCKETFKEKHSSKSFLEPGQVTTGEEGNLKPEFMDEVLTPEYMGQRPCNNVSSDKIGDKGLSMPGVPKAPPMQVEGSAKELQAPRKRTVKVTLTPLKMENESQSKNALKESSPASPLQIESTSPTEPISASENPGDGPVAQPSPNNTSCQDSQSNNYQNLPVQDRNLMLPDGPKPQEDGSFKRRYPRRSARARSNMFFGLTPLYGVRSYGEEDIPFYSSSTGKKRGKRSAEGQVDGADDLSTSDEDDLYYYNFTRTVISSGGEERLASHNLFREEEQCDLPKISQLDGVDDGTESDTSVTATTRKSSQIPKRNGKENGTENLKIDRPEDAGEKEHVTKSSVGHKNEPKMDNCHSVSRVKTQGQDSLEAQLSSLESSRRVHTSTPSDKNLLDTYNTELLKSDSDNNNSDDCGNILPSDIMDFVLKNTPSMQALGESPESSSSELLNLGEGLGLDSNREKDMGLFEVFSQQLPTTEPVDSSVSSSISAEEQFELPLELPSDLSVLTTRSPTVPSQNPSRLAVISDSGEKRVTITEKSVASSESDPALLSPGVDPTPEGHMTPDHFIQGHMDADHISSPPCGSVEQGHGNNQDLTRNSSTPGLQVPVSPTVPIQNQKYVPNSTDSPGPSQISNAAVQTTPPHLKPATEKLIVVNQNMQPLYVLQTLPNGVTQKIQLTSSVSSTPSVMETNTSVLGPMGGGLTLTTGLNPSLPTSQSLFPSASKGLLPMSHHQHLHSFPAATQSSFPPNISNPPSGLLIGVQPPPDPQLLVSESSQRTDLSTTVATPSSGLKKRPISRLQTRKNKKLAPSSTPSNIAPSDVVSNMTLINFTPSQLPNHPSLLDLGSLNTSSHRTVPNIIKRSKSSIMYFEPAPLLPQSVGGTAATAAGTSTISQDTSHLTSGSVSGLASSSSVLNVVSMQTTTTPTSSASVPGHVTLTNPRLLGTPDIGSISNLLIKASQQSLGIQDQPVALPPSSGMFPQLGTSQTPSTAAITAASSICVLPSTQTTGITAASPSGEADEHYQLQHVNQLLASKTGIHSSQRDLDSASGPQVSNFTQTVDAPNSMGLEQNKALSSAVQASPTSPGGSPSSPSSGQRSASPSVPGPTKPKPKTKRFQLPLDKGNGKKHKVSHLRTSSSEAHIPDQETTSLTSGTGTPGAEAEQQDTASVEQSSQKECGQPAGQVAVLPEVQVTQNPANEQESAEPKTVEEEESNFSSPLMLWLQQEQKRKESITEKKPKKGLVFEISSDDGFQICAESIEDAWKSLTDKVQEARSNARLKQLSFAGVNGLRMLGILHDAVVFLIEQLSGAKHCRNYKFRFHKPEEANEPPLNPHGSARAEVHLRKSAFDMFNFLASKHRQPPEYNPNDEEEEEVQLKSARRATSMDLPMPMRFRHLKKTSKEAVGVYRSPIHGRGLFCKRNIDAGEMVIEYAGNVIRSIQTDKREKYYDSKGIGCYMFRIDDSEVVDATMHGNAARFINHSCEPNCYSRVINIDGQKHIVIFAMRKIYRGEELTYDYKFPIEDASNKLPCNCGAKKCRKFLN

Q: Which activity change, negative = inhibition does the source give for `O=C(COc1ccc(C(=S)N2CCOCC2)cc1)N1CCOCC1` here?
A: The activity change, negative = inhibition was inconclusive: 15.4% [phenotype inactive].

Q: With `CCc1cc2cc(C)cc(C)c2[nH]c1=S` as the compound, how does the Potency read?
A: The Potency was inconclusive: 1 µM [fluorescent, side channel, full curve].

Q: `COc1ccc(N(CC(=O)Nc2ccc(F)c(F)c2)S(=O)(=O)c2c(C)[nH]c(=O)[nH]c2=O)cc1` was tested. Which “activity change, negative = inhibition” value did it give?
A: Its value is inactive: -1.33%.

Q: With `COc1ccc(CCC(=O)N2CCN(c3ccc([N+](=O)[O-])cc3)CC2)cc1OC` as the compound, how does the Potency read?
A: The Potency was inconclusive: 14.1 µM [inhibitor, single point].

Q: Which Potency does the source give for `CCOC(=O)N1CCC(N2CCCC(C(=O)c3cc(F)ccc3OC)C2)CC1` (configuration not stated) here?
A: The Potency was inconclusive: 7.08 µM [inhibitor, full curve].

Q: For `CCOC(=O)C1CN(S(=O)(=O)c2ccc(Cl)cc2)c2cc(S(=O)(=O)CC)ccc2O1` (configuration not stated), which Potency is on record?
A: Its Potency is inconclusive: 39.8 µM [fluorescent, side channel, single point].

Q: For `CCc1nnc(NC(=O)CSC(=S)N2CCOCC2)s1`, which Potency is on record?
A: The Potency was inconclusive: 14.1 µM [quencher, side channel, single point].

Q: Which Potency does the source give for `COc1cccc(NS(=O)(=O)c2ccc3[nH]cc(C(=O)NCCCOC(C)C)c(=O)c3c2)c1` here?
A: Its Potency is inconclusive: 70.8 µM [fluorescent, side channel, single point].

Q: With `c1ccc(N/N=C(\Cc2nc3ccccc3[nH]2)c2ccccc2)cc1` as the compound, how does the Potency read?
A: Its Potency is inconclusive: 70.8 µM [fluorescent, side channel, single point].

Q: `NC(=O)C1CCN(C(=O)C(=O)c2cn(CC(=O)N3CCCCCC3)c3ccccc23)CC1` was tested. Which Potency did it give?
A: Its Potency is inconclusive: 22.4 µM [fluorescent, side channel, partial curve].

Q: `CC(=C/c1ccccc1)/C=N/n1c(-c2ccco2)n[nH]c1=S` was tested. Which “activity change, negative = inhibition” value did it give?
A: Its value is inactive: 9.39%.

Q: With `CCCCCc1ccc(OCCCC[n+]2ccc(C)cc2)c(CCCCC)c1` as the compound, how does the Potency read?
A: The Potency was inconclusive: 70.8 µM [quencher, side channel, single point].

Q: Which Potency does the source give for `CCc1cccc(CC)c1-n1c(-c2cccnc2)n[nH]c1=S` here?
A: Its Potency is inconclusive: 35.5 µM [inhibitor, single point].

Q: Which Potency does the source give for `FC(F)(F)c1cc(-c2ccco2)nc(N2CCOCC2)n1` here?
A: Its Potency is inconclusive: 15.8 µM [inhibitor, partial curve].

Q: How did the Potency turn out when `CN(C)CCNC(=O)c1sc2nc(-c3ccccc3)cc(C(F)(F)F)c2c1N` was run?
A: Its Potency is inconclusive: 28.2 µM [quencher, side channel, partial curve].

Q: Which “activity change, negative = inhibition” value does the source give for `Nc1c(C(=O)Nc2ccccc2)sc2nc(-c3cccnc3)ccc12` here?
A: The value was inactive: 30.1%.

Q: `O=C(/C=C/c1ccc(Cl)cc1)N1CCN(c2ccc(Cl)cc2[N+](=O)[O-])CC1` was tested. Which Potency did it give?
A: Its Potency is inconclusive: 35.5 µM [inhibitor, single point].

Q: For `CC(=O)Nc1ccc(NC(=O)c2ccc(Cn3cc(Cl)cn3)cc2)cc1`, which “activity change, negative = inhibition” value is on record?
A: The value was inactive: 22.7%.

Q: Which Potency does the source give for `Cc1cc(Nc2ccccc2Cl)nc(-c2ccccc2O)n1` here?
A: The Potency was inconclusive: 44.7 µM [fluorescent, side channel, single point].

Q: For `Nn1c(SCC(=O)Nc2cc(C(F)(F)F)ccc2Cl)nncc1=O`, which Potency is on record?
A: The Potency was inconclusive: 10 µM [fluorescent, side channel, single point].

Q: `COc1ccc2c3c(c(=O)oc2c1OCC(N)=O)CCCC3` was tested. Which “activity change, negative = inhibition” value did it give?
A: Its value is inactive: -0.922%.

Q: How did the “activity change, negative = inhibition” value turn out when `CC(C)(C)NC(=O)COC(=O)c1snc(C(=O)NC2CCCCC2)c1N` was run?
A: The value was inactive: 14.3%.

Q: How did the Potency turn out when `CCCCC(=O)NC(c1cccc([N+](=O)[O-])c1)c1c(OC(C)=O)ccc2ccccc12` (configuration not stated) was run?
A: Its Potency is inconclusive: 50.1 µM [fluorescent, side channel, single point].

Q: For `CCN(CC)S(=O)(=O)c1ccc(C)c(NC(=O)CN2C(=O)NC3(CCCC3)C2=O)c1`, which Potency is on record?
A: Its Potency is inconclusive: 89.1 µM [fluorescent, side channel, single point].

Q: Which Potency does the source give for `CCn1c(=S)[nH]c2cc(C(=O)O)ccc21` here?
A: Its Potency is inconclusive: 20 µM [fluorescent, side channel, full curve].

Q: Which “activity change, negative = inhibition” value does the source give for `O=C(O)C(c1ccccc1)N1C(=O)/C(=C\c2ccc(-c3ccccc3Cl)o2)SC1=S` (configuration not stated) here?
A: Its value is inactive: 8.39%.

Q: How did the Potency turn out when `CC(C(=O)N1CCN(Cc2ccc3c(c2)OCO3)CC1)c1ccc([N+](=O)[O-])cc1` (configuration not stated) was run?
A: Its Potency is inconclusive: 10 µM [fluorescent, side channel, partial curve].

Q: Which Potency does the source give for `CCOc1ccccc1/C=c1\sc2nc(-c3ccco3)nn2c1=O` here?
A: The Potency was inconclusive: 44.7 µM [inhibitor, single point].

Q: `CCCCN1C(=O)/C(=C/C=C2\SCCN2C)SC1=S` was tested. Which Potency did it give?
A: The Potency was inconclusive: 22.4 µM [fluorescent, side channel, partial curve].

Q: How did the Potency turn out when `COc1ccc(NC(=O)/C(C#N)=C\c2ccc(-c3cccc(C(=O)O)c3C)o2)cc1` was run?
A: Its Potency is inconclusive: 17.8 µM [inhibitor, partial curve].

Q: How did the Potency turn out when `O=C(Nc1ccncc1)Nc1ccc(Br)cc1Cl` was run?
A: Its Potency is inconclusive: 39.8 µM [quencher, side channel, single point].

Q: Which Potency does the source give for `Cc1c(C#N)c(O)[nH]c(=O)c1N=Nc1ccc(S(N)(=O)=O)cc1` here?
A: Its Potency is inconclusive: 63.1 µM [quencher, side channel, single point].

Q: With `COc1ccc(C)cc1NC(=O)NNC(=O)c1cc2ccccc2cc1O` as the compound, how does the Potency read?
A: Its Potency is inconclusive: 11.2 µM [fluorescent, side channel, full curve, poor fit].

Q: For `Cc1nc(Nc2cnc(/C=C/c3cc(C(=O)Nc4cccc(C(F)(F)F)c4)ccc3C)cn2)cc(N2CCNCC2)n1`, which Potency is on record?
A: The Potency was inconclusive: 7.08 µM [quencher, side channel, full curve].

Q: For `CSc1ccc(CN(C)C(=O)CNC(=O)c2sc3ccccc3c2Cl)cc1`, which Potency is on record?
A: The Potency was inconclusive: 8.91 µM [fluorescent, side channel, partial curve, poor fit].

Q: With `O=S(=O)(c1ccc(F)cc1)N1CCC(c2nc3ccccc3[nH]2)CC1` as the compound, how does the Potency read?
A: Its Potency is inconclusive: 50.1 µM [fluorescent, side channel, single point].

Q: For `N=C1C(c2nc3ccccc3s2)=C(O)CN1NC(=O)c1ccc([N+](=O)[O-])cc1`, which Potency is on record?
A: Its Potency is inconclusive: 89.1 µM [inhibitor, single point].

Source: PubChem BioAssay AID2662 (National Center for Advancing Translational Sciences (NCATS), 2010)
